The other results are listed elsewhere or left out. Most entries show no effect beyond the scatter of the controls.

Chains of the proteins cited; added tags and fusions are not shown. Lines headed by an entry give the natural chain unless they say otherwise; changes in a name come on top.
UniProt Q9Y2V0: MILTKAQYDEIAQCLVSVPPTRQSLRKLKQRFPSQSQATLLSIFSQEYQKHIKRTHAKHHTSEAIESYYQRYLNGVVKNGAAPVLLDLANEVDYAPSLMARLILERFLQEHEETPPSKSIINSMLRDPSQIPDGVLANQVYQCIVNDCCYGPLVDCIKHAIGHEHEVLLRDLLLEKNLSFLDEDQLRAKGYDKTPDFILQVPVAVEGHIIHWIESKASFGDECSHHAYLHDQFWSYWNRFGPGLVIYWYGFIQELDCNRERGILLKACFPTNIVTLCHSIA
UniProt Q9Y242: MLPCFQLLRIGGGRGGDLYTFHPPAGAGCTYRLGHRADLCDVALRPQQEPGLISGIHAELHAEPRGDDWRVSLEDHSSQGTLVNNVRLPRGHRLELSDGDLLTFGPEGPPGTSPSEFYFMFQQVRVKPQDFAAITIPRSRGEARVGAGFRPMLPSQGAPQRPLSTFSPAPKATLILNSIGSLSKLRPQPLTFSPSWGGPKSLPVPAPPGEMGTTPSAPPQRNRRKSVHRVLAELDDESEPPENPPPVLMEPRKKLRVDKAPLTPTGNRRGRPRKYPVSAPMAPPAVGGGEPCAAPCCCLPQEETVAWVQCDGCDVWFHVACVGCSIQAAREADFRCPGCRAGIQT
UniProt Q9Y2X0: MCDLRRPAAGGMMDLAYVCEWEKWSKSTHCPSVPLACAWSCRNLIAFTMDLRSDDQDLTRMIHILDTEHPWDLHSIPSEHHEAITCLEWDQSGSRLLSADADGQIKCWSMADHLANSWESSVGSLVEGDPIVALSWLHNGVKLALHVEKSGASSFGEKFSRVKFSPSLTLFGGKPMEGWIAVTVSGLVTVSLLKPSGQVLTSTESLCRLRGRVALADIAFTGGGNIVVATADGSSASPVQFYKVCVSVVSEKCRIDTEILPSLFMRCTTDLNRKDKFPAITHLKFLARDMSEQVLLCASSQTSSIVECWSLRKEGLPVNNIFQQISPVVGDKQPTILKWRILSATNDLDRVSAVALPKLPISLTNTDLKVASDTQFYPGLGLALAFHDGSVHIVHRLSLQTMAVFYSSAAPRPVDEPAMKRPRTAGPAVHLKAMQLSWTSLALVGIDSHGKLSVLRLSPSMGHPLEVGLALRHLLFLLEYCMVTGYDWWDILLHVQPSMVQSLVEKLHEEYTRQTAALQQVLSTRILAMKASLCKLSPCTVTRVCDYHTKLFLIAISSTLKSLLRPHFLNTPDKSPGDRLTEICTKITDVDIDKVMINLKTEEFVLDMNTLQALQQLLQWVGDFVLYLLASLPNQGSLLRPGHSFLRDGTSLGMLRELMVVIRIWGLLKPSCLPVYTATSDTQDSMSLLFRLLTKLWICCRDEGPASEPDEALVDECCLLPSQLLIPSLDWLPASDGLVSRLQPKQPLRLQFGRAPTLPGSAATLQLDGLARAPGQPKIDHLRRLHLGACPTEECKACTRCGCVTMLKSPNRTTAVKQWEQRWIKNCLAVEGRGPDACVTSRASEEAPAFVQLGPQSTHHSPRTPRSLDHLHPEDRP
UniProt Q9UKT7: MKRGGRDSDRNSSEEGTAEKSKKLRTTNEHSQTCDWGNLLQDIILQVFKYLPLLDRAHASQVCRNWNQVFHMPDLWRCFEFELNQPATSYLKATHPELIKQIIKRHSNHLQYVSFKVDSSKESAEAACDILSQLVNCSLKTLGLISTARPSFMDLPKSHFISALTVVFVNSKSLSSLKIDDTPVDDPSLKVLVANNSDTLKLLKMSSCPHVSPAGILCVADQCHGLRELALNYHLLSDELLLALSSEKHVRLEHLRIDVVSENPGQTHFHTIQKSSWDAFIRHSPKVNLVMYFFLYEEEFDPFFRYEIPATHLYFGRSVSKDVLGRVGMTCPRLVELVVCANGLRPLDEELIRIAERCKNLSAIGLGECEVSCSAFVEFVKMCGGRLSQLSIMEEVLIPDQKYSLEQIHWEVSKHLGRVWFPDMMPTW
UniProt Q9UKF6: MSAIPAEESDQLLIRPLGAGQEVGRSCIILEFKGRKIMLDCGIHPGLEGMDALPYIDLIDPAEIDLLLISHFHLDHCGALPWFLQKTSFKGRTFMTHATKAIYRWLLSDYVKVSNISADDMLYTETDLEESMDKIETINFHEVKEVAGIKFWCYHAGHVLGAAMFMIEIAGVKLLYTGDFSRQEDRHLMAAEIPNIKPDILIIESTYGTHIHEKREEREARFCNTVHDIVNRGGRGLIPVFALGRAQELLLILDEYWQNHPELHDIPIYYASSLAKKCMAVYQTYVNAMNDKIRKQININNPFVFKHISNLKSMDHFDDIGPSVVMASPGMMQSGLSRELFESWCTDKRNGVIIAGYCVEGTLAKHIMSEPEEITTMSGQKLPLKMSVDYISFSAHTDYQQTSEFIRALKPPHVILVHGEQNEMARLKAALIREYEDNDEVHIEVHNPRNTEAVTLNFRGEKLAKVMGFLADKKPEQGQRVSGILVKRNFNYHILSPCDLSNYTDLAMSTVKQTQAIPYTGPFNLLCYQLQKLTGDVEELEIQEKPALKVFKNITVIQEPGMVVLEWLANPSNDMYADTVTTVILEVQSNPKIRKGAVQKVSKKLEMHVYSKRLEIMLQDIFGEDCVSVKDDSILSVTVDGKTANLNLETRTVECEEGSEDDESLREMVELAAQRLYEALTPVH
UniProt Q9Y2W6: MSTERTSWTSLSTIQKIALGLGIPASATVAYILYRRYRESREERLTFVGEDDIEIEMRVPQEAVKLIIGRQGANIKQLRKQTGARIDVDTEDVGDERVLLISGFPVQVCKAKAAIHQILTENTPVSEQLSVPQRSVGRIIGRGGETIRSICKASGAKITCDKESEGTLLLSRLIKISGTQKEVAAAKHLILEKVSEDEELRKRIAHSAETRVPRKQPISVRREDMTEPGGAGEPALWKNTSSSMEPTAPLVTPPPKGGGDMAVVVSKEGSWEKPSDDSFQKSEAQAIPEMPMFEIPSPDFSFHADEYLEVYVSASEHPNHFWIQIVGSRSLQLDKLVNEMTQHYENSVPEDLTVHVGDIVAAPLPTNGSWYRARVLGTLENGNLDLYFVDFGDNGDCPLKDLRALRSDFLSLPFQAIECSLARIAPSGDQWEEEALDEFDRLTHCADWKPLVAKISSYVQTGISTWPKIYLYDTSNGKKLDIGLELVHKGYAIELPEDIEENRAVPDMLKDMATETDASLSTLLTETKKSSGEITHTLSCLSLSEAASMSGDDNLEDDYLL
UniProt Q9ULQ0: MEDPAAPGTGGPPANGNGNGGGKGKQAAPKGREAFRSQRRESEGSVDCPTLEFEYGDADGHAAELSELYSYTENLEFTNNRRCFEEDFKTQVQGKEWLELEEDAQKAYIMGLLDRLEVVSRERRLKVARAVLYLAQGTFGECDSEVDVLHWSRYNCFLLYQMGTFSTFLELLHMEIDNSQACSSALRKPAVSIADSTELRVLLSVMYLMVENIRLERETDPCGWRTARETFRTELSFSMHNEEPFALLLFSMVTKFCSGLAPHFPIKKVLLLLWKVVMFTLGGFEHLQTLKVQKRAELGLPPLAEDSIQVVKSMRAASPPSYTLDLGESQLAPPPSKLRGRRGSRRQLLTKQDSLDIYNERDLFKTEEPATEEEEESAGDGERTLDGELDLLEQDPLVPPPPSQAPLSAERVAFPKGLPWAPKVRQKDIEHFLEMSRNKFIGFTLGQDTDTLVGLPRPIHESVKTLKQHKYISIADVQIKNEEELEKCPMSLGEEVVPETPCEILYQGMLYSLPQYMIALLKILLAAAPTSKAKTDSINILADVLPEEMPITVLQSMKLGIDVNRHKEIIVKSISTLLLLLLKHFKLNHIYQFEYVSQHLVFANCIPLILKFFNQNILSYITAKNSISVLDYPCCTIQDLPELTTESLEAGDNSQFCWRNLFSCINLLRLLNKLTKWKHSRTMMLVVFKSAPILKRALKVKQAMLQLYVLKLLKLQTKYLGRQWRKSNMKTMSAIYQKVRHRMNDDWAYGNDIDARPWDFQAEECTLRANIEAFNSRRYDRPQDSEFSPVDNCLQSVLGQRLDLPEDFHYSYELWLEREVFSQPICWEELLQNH
UniProt Q9ULM3: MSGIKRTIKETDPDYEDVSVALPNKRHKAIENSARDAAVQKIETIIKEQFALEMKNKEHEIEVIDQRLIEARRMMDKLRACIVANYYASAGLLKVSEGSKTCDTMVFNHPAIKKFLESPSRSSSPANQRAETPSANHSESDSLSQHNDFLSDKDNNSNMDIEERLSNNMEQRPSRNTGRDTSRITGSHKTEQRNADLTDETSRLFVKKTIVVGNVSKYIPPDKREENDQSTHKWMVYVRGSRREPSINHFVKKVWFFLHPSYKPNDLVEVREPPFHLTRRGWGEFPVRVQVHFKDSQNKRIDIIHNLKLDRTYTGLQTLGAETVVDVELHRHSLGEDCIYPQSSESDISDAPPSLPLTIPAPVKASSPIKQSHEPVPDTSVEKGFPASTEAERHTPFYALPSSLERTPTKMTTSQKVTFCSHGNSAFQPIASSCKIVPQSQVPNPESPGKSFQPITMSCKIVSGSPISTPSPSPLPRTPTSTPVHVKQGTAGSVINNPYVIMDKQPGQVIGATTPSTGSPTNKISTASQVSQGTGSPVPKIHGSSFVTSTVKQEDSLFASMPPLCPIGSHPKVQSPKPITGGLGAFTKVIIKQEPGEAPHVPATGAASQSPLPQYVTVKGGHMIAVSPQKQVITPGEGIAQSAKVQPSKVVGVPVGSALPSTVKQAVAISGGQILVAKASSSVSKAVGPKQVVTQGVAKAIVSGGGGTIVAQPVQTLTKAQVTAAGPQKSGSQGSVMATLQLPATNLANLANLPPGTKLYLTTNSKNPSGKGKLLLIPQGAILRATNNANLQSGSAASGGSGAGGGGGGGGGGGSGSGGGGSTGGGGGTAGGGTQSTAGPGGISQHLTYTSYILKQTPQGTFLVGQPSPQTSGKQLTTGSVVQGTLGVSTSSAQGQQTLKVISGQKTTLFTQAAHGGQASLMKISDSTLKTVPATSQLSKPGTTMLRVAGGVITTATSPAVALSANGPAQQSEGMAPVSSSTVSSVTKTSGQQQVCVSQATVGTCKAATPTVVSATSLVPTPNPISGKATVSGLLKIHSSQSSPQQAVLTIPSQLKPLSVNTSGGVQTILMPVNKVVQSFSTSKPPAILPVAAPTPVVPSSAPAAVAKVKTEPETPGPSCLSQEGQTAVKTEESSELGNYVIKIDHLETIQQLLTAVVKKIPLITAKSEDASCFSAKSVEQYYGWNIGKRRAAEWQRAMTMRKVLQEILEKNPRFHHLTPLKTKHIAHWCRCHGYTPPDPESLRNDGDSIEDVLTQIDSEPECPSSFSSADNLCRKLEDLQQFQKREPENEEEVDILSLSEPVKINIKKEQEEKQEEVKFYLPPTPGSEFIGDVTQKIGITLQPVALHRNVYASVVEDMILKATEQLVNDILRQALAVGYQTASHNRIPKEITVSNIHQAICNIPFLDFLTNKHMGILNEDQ
UniProt Q9Y365: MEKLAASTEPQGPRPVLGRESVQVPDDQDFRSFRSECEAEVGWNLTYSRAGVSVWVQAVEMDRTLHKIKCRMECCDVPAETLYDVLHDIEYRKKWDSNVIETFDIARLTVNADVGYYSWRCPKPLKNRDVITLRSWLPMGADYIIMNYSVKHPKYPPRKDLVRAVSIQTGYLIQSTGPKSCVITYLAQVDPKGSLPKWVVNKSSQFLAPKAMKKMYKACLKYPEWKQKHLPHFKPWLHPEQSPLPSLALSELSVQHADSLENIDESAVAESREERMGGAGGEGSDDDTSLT
UniProt Q9Y294, whole entry: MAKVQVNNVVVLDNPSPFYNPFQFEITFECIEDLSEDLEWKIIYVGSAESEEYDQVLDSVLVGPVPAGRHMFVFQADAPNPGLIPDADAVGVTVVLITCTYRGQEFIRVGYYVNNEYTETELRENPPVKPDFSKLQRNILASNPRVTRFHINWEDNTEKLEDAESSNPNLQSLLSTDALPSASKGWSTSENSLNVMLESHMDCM

Compound in the assay: CN[C@@H]1C[C@H]2O[C@@](C)([C@@H]1OC)n1c3ccccc3c3c4c(c5c6ccccc6n2c5c31)C(=O)NC4 [staurosporine]
The assay can be described thus: log2 fold change of tryptic peptide abundance, ligand vs vehicle (limited proteolysis) (log2 ratio); higher = more trypsin-susceptible (destabilized). The settings on record: ligand concentration: 20 uM; sample: K562 cleared lysate; digestion: 4 min, 22 C (HT-PELSA RT4min, Orbitrap Astral).
Regarding “C15orf41 (peptide sequence: HHTSEAIESYYQR, peptide start residue: 59) (UniProt Q9Y2V0)”, the log2 fold change amounted to 0.704.
For “UniProt Q9Y242 (peptide sequence: VDKAPLTPTGNR, peptide start residue: 257)”, the log2 fold change amounted to 0.457.
For “MED16 (peptide sequence: APTLPGSAATLQLDGLAR, peptide start residue: 755) (UniProt Q9Y2X0)”, the log2 fold change is 0.328.
Consider “UniProt Q9UKT7 (peptide sequence: TLGLISTARPSFMDLPK, peptide start residue: 141)”, for which the log2 fold change amounted to 0.417.
Consider “CPSF3 (peptide sequence: GLIPVFALGR, peptide start residue: 236) (UniProt Q9UKF6)”, for which the log2 fold change is 0.237.
“TDRKH (peptide sequence: IAHSAETR, peptide start residue: 204) (UniProt Q9Y2W6)”: the log2 fold change was -0.229.
The value for “STRIP2 (peptide sequence: QDSLDIYNER, peptide start residue: 352) (UniProt Q9ULQ0)” was 0.194.
On to “YEATS2 (peptide sequence: TVPATSQLSKPGTTMLR, peptide start residue: 931) (UniProt Q9ULM3)”, for which the log2 fold change amounted to 0.322.
The result for “STARD10 (peptide sequence: LAASTEPQGPRPVLGR, peptide start residue: 4) (UniProt Q9Y365)” reads 0.265; that for “ASF1A (peptide sequence: NILASNPR, peptide start residue: 138) (UniProt Q9Y294)”, 0.0575.

Source of the values: the supplement of paper PMC12819154, “High-throughput peptide-centric local stability assay extends protein–ligand identification to membrane proteins, tissues and bacteria” (Nature Structural & Molecular Biology, 2025).
